Measurements: the supplement of paper PMC10849652
This is one part of the list.

Amino acid sequences for entries named in this document (tags omitted). A change or cut given only in a name is not applied to a line headed by its entry.
UniProt Q96CS3: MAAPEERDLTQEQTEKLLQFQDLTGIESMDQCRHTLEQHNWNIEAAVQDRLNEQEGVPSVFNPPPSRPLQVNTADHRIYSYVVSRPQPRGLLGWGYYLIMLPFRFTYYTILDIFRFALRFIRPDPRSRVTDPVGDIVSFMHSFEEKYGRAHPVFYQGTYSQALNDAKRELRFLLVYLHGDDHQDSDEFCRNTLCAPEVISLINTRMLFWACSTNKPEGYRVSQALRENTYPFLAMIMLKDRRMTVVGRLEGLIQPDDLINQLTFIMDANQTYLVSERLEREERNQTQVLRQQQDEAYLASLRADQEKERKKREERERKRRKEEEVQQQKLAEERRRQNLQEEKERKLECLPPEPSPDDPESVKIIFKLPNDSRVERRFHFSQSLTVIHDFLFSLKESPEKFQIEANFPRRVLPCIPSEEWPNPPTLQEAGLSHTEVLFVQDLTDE
UniProt Q8WUF8: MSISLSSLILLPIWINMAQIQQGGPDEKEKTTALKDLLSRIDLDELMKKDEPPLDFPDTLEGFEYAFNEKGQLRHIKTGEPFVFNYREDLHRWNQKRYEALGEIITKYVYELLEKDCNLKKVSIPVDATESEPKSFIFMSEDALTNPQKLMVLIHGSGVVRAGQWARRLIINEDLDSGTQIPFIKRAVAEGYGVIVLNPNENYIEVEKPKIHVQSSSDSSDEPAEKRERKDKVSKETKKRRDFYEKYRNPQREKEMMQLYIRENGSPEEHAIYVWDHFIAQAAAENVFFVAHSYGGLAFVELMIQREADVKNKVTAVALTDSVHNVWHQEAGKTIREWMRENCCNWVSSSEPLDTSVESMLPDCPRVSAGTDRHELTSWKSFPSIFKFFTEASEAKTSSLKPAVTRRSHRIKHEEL
UniProt Q9Y421: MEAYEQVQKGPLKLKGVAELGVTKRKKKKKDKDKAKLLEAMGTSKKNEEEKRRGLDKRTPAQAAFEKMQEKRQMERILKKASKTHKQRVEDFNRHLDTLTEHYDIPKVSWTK
UniProt Q9BYI3: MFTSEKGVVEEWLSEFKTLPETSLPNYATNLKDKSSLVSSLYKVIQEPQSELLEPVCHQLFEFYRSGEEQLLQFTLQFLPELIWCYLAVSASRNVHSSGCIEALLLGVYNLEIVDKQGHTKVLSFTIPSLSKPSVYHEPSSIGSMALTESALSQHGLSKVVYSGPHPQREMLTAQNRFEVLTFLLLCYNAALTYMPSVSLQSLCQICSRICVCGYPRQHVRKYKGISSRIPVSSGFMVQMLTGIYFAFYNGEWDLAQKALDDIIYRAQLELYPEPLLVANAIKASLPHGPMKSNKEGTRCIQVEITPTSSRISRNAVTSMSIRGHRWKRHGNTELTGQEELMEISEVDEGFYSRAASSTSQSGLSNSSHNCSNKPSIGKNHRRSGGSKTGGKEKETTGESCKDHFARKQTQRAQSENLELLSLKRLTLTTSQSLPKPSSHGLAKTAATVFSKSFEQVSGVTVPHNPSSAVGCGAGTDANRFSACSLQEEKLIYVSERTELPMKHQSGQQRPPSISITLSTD
UniProt Q96RI0: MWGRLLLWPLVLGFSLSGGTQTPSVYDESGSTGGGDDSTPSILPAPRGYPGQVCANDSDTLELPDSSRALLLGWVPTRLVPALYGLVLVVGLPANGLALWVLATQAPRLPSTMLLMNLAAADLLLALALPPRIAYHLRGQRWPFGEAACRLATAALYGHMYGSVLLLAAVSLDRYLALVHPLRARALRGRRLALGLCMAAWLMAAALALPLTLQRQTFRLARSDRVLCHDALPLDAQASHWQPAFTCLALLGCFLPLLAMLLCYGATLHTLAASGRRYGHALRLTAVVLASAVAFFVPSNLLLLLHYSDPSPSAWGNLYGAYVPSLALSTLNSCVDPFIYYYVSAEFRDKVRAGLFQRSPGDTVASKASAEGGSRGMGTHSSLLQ
UniProt Q8N612: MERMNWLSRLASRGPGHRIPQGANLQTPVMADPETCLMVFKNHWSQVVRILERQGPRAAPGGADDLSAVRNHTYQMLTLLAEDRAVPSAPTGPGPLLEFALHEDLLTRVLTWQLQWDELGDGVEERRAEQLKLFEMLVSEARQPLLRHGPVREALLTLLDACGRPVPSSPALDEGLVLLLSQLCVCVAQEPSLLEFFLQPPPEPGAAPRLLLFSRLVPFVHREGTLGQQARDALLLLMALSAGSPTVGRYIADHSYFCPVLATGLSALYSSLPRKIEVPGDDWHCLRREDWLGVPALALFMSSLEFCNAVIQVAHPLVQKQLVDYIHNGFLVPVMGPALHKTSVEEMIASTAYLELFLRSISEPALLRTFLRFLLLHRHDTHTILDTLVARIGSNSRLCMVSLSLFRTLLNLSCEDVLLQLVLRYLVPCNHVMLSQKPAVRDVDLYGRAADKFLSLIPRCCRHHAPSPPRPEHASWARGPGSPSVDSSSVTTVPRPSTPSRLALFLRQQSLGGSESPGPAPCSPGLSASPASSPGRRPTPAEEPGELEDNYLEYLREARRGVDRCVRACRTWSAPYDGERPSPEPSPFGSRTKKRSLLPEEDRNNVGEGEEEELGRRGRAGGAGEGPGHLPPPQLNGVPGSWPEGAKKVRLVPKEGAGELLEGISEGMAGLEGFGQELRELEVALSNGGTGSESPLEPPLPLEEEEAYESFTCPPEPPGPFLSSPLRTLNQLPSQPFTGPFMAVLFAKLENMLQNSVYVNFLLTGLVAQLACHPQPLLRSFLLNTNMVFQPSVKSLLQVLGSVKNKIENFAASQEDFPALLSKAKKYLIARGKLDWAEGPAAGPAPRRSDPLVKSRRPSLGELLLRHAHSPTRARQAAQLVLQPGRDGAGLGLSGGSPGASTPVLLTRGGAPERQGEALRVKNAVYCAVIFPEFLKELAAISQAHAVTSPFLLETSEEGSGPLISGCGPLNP
UniProt Q9C073: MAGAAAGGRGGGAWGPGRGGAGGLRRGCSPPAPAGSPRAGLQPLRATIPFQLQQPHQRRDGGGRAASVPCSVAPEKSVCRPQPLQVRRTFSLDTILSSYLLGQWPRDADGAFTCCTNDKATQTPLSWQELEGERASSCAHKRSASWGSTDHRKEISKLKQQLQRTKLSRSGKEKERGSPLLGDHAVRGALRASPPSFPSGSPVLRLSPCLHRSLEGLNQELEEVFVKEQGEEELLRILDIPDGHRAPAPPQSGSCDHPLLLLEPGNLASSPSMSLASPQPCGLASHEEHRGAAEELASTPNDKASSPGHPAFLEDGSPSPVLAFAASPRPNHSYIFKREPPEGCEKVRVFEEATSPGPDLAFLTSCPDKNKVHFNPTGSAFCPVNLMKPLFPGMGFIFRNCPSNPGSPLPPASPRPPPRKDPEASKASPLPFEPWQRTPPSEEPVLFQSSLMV
UniProt Q96PZ2, whole entry, looked up: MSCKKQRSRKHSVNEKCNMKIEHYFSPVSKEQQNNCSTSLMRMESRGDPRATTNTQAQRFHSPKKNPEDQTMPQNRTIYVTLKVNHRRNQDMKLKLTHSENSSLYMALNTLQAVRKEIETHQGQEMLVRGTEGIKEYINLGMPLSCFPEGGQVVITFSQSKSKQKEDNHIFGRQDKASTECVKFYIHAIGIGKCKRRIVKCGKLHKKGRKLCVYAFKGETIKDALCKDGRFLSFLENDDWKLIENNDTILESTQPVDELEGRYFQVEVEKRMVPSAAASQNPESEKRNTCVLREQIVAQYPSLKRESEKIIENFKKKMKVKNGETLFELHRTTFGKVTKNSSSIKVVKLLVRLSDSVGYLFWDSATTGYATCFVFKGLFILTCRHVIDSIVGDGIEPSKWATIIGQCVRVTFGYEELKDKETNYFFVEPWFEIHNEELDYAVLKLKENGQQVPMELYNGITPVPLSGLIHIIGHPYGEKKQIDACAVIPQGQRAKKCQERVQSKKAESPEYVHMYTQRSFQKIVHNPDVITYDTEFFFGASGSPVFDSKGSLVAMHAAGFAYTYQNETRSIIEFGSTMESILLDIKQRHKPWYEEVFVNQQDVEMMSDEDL
UniProt Q9H098: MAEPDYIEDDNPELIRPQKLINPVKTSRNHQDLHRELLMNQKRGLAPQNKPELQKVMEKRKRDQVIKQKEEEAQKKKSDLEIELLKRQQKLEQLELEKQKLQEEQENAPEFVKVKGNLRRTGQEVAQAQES
UniProt Q5HYJ3: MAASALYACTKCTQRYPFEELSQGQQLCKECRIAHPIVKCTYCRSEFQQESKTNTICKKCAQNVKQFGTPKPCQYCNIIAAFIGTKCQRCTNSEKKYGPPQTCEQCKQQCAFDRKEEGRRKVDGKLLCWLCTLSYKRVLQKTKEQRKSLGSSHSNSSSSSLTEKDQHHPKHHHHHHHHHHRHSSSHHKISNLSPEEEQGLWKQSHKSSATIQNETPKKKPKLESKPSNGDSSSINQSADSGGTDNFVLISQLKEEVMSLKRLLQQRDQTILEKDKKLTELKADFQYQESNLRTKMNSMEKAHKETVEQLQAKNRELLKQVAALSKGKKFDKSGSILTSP
UniProt Q9Y3B2, whole entry, looked up: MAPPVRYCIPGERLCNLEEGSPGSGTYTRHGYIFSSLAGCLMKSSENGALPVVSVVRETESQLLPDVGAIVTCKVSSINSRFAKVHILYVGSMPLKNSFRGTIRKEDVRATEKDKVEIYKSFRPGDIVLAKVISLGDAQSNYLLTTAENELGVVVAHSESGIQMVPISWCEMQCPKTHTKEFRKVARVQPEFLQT
UniProt P41212: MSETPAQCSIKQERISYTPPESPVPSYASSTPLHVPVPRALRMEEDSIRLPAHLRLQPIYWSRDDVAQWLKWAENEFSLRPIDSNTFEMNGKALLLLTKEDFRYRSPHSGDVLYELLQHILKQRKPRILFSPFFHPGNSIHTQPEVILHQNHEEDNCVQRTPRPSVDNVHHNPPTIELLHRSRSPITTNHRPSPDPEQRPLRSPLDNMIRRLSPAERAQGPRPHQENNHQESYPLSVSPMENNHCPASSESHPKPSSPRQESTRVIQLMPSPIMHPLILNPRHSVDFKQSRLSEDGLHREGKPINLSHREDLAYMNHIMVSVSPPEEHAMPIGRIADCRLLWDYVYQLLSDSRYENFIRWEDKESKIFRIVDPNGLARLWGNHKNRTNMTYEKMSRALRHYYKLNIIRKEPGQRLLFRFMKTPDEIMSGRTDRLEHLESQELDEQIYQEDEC
UniProt Q8IWE2: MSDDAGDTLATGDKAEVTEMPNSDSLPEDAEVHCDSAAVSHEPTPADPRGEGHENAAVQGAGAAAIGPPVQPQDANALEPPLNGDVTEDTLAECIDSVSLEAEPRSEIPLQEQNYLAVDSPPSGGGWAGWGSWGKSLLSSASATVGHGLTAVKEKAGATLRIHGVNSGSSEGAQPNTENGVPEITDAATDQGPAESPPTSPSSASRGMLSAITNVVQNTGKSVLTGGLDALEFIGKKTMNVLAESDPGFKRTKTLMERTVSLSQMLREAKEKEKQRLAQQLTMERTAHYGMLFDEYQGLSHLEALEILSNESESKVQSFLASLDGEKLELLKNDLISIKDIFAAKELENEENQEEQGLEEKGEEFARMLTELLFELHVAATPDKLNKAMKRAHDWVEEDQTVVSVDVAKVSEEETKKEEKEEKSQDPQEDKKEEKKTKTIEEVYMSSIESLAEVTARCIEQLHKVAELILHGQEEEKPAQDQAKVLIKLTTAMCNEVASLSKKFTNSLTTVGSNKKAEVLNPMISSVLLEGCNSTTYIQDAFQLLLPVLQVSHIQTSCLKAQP
UniProt O94905: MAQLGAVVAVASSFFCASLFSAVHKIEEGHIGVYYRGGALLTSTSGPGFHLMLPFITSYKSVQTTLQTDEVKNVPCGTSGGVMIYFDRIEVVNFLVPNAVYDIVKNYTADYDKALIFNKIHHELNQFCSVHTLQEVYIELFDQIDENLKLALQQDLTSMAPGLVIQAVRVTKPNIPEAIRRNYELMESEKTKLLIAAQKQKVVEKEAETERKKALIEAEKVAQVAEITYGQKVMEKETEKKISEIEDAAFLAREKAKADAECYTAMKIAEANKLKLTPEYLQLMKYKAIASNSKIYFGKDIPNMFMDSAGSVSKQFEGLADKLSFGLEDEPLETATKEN

What was measured:
Assay in all cases: log2 fold change, soluble protein after heating vs DMSO (PISA); higher = thermal stabilisation; K562 lysate, 10 uM; active = over 0.2 and 3.5 SD of the protein, either way, in both replicates (recomputed)
[1] = compound: CCCS(=O)(=O)Nc1ccc(F)c(C(=O)c2c[nH]c3ncc(-c4ccc(Cl)cc4)cc23)c1F [vemurafenib]
Outline: (§1)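 A 30 min treatment with 10 μM compound was applied to crude K562 extract at 1 mg/mL protein in PBS pH 7.4 with 1 mM MgCl2. Heating for 3 min spanned 48°C-58°C, after which aliquots were pooled, adjusted to 0.5% NP-40 at 4°C and spun at 21,000xg for 90 min. TMTpro 16plex LC-MS/MS of the supernatant, with channel sums equalised, gave values recorded as log-two fold change in thermal stability against solvent controls, from duplicates.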

[2] = compound: CCCS(=O)(=O)Nc1ccc(F)c(C(=O)c2c[nH]c3ncc(Cl)cc23)c1F
Outline: as §1

[3] = compound: CCN(CCCOc1ccc2c(Nc3cc(CC(=O)Nc4cccc(F)c4)[nH]n3)ncnc2c1)CCOP(=O)(O)O [barasertib]
Outline: as §1

[4] = compound: CC[C@@H]1C(=O)N(C)c2cnc(Nc3ccc(C(=O)NC4CCN(C)CC4)cc3OC)nc2N1C1CCCC1
Outline: as §1

[5] = compound: CC[C@@H]1C(=O)N(C)c2cnc(Nc3ccc(C(=O)N[C@H]4CC[C@H](N5CCN(CC6CC6)CC5)CC4)cc3OC)nc2N1C(C)C [volasertib]
Outline: as §1

[6] = compound: CCn1c(C(=O)N(C2CC2)C2CC2)cc2c3c(ncn3C)c(Nc3cc(C)n(C)n3)nc21
Outline: as §1

[7] = compound: CCn1cc(-c2ccnc3[nH]c(-c4cccc(CN(C)C)c4)cc23)c(-c2ccc(NC(=O)N(C)C)cc2)n1
Outline: as §1

[8] = compound: CN1CCC(CNc2ccc3ncc(-c4cccc(OC(F)(F)F)c4)n3n2)CC1
Outline: as §1

[9] = compound: CN1CCN(CCOc2cc(OC3CCOCC3)c3c(Nc4c(Cl)ccc5c4OCO5)ncnc3c2)CC1 [saracatinib]
Outline: as §1

[10] = compound: CN1CCN(c2nc(C3=C(c4c[nH]c5ccccc45)C(=O)NC3=O)c3ccccc3n2)CC1 [sotrastaurin]
Outline: as §1

[11] = compound: CN1CC[C@H](c2c(O)cc(O)c3c(=O)cc(-c4ccccc4Cl)oc23)[C@H](O)C1 [alvocidib]
Outline: as §1

[12] = compound: CN1CCc2c(c3ccccc3n2Cc2ccc(C(=O)NO)cc2)C1 [Tubastatin A]
Outline: as §1

[13] = compound: CNC(=O)C1=CC=CC=C1NC2=NC(=NC=C2Cl)NC3=C(C=C(C=C3)N4CCOCC4)OC
Outline: as §1

[14] = compound: CNC(=O)c1ccc(Nc2ncc(C(F)(F)F)c(NCc3nccnc3N(C)S(C)(=O)=O)n2)cc1 [defactinib]
Outline: as §1

[15] = compound: CNc1nc(-c2ccc3c(N)n[nH]c3c2)cc(N2C[C@@H](C(=O)NC3CCCCC3)CC[C@H]2C)n1
Outline: as §1

[16] = compound: COC(=O)N[C@@H](C)CNc1nccc(-c2cn(C(C)C)nc2-c2cc(Cl)cc(NS(C)(=O)=O)c2F)n1 [encorafenib]
Outline: as §1

[17] = compound: COC(=O)[C@H](CCSC)NC(=O)C1=C(C=C(C=C1)NC[C@H](CS)N)C2=CC=CC=C2
Outline: as §1

[18] = compound: COc1cc(Nc2ncc3c(n2)-c2ccc(Cl)cc2C(c2c(F)cccc2OC)=NC3)ccc1C(=O)O [alisertib]
Outline: as §1

[19] = compound: COc1cc2nc(-c3cc(F)ccc3O)nc(N[C@@H]3CNC[C@H]3C(C)(C)O)c2cc1OC
Outline: as §1

[20] = compound: COc1cc2ncnc(Nc3ccc(F)c(Cl)c3)c2cc1OCCCN1CCOCC1 [gefitinib]
Outline: as §1

Target | log2 fold change [1] | log2 fold change [2] | log2 fold change [3] | log2 fold change [4] | log2 fold change [5] | log2 fold change [6] | log2 fold change [7] | log2 fold change [8] | log2 fold change [9] | log2 fold change [10] | log2 fold change [11] | log2 fold change [12] | log2 fold change [13] | log2 fold change [14] | log2 fold change [15] | log2 fold change [16] | log2 fold change [17] | log2 fold change [18] | log2 fold change [19] | log2 fold change [20]
FAF2 (UniProt Q96CS3) | inactive: 0.01 | inactive: 0.048 | inactive: 0.046 | inactive: 0.002 | inactive: -0.068 | inactive: -0.016 | inactive: 0.045 | inactive: -0.037 | inactive: 0.004 | inactive: -0.001 | inactive: 0.035 | inactive: 0.001 | inactive: 0.013 | inactive: -0.028 | inactive: -0.002 | inactive: 0.015 | inactive: -0.013 | inactive: -0.074 | inactive: -0.017 | inactive: 0.008
FAM172A (UniProt Q8WUF8) | inactive: -0.117 | inactive: -0.01 | inactive: 0.163 | inactive: -0.026 | inactive: -0.035 | inactive: -0.085 | – | – | inactive: -0.017 | – | – | inactive: 0.053 | inactive: -0.276 | inactive: -0.025 | inactive: 0.147 | inactive: -0.055 | inactive: 0.097 | inactive: 0.001 | inactive: 0.033 | inactive: -0.123
FAM32A (UniProt Q9Y421) | inactive: 0.038 | – | inactive: 0.065 | inactive: 0.097 | – | inactive: -0.028 | inactive: -0.036 | inactive: 0.123 | inactive: 0.039 | inactive: -0.012 | inactive: -0.05 | inactive: 0.149 | inactive: -0.029 | inactive: -0.018 | inactive: 0.043 | inactive: 0.002 | inactive: -0.005 | – | – | –
FAM126A (UniProt Q9BYI3) | inactive: -0.062 | inactive: 0.06 | inactive: 0.111 | – | inactive: -0.174 | inactive: 0.064 | inactive: -0.018 | inactive: 0.166 | inactive: 0.047 | inactive: -0.007 | inactive: -0.056 | inactive: -0.098 | inactive: 0.11 | inactive: -0.072 | inactive: -0.073 | – | – | inactive: -0.098 | inactive: 0.097 | inactive: 0.002
F2RL3 (UniProt Q96RI0) | inactive: 0.132 | inactive: 0.03 | – | – | inactive: 0.055 | inactive: 0.14 | inactive: -0.089 | inactive: 0.25 | inactive: 0.052 | – | inactive: -0.008 | inactive: 0.128 | inactive: 0.104 | inactive: -0.128 | inactive: 0.033 | – | – | inactive: -0.014 | inactive: -0.013 | inactive: 0.087
FAM160A2 isoform 2 (UniProt Q8N612) | inactive: 0.076 | – | inactive: 0.067 | inactive: -0.03 | – | – | inactive: 0.024 | inactive: 0.038 | inactive: 0.012 | inactive: 0.108 | inactive: 0 | – | inactive: 0.214 | inactive: -0.024 | inactive: -0.172 | inactive: 0.018 | inactive: -0.054 | inactive: -0.03 | – | inactive: -0.026
FAM117A (UniProt Q9C073) | inactive: -0.048 | inactive: 0.003 | inactive: -0.103 | inactive: 0.088 | inactive: -0.007 | inactive: -0.002 | inactive: 0.073 | inactive: -0.038 | inactive: 0.011 | inactive: -0.037 | inactive: -0.001 | inactive: 0.001 | inactive: 0.042 | inactive: -0.04 | inactive: 0.002 | inactive: -0.056 | inactive: -0.033 | inactive: -0.046 | inactive: -0.032 | inactive: -0.051
FAM111A (UniProt Q96PZ2) | inactive: -0.02 | active: 0.432 | – | inactive: -0.34 | inactive: -0.045 | inactive: 0.112 | – | – | inactive: 0.055 | inactive: -0.016 | – | inactive: -0.083 | inactive: 0.022 | inactive: 0.053 | inactive: -0.119 | inactive: -0.074 | inactive: -0.11 | – | inactive: -0.091 | –
FAM107B isoform 2 (UniProt Q9H098) | inactive: -0.043 | inactive: 0.032 | inactive: 0.01 | inactive: -0.09 | inactive: -0.006 | inactive: -0.117 | inactive: 0.161 | inactive: 0.015 | inactive: -0.053 | inactive: -0.024 | inactive: 0 | inactive: 0.055 | inactive: -0.037 | inactive: 0.106 | inactive: -0.033 | inactive: 0.049 | inactive: -0.034 | inactive: 0.029 | inactive: 0.111 | inactive: 0.028
FAM76B (UniProt Q5HYJ3) | inactive: 0.048 | inactive: -0.005 | – | inactive: 0.04 | inactive: 0.005 | inactive: -0.008 | inactive: 0.025 | inactive: 0.007 | inactive: -0.003 | inactive: 0.027 | inactive: -0.019 | inactive: 0.012 | inactive: 0.068 | inactive: 0.076 | inactive: -0.002 | inactive: 0.013 | inactive: -0.146 | inactive: -0.02 | inactive: 0.016 | inactive: -0.018
EXOSC1 (UniProt Q9Y3B2) | inactive: 0.001 | inactive: 0.059 | inactive: -0.069 | inactive: 0.022 | inactive: -0.024 | inactive: 0.049 | inactive: -0.01 | inactive: -0.035 | inactive: 0.034 | inactive: 0.014 | inactive: 0.064 | inactive: -0.043 | inactive: -0.027 | inactive: -0.028 | inactive: 0.01 | inactive: 0 | inactive: 0.066 | inactive: -0.031 | inactive: -0.016 | inactive: 0.017
FAM193A, A0A1B0GVL4 | inactive: 0.05 | inactive: -0.06 | inactive: 0.146 | inactive: 0.393 | inactive: -0.009 | – | inactive: -0.117 | inactive: 0.172 | – | inactive: -0.003 | inactive: 0.042 | – | inactive: 0.141 | inactive: 0.121 | – | inactive: 0.138 | inactive: -0.044 | inactive: -0.021 | inactive: 0.013 | inactive: 0.006
ETV6 (UniProt P41212) | inactive: -0.108 | inactive: 0.111 | – | inactive: 0.045 | inactive: 0.008 | inactive: 0.092 | inactive: -0.112 | inactive: -0.093 | inactive: -0.034 | inactive: 0.048 | inactive: 0.013 | inactive: 0.102 | – | inactive: 0.076 | inactive: 0.068 | inactive: 0.021 | inactive: -0.165 | inactive: -0.03 | inactive: -0.037 | inactive: 0.216
FAM49B, A0A1W2PRQ0 | inactive: 0.22 | – | inactive: -0.08 | inactive: 0.22 | – | inactive: 0.038 | – | – | – | – | – | inactive: 0.215 | – | inactive: 0.02 | – | inactive: 0.057 | inactive: -0.285 | – | – | –
FAM114A1 (UniProt Q8IWE2) | inactive: 0.049 | inactive: 0.036 | inactive: 0.034 | inactive: 0.123 | inactive: 0.018 | inactive: -0.042 | inactive: -0.075 | inactive: 0.05 | inactive: -0.063 | – | inactive: -0.046 | inactive: -0.132 | inactive: -0.111 | inactive: -0.017 | inactive: 0.182 | inactive: 0.096 | inactive: -0.019 | – | inactive: 0.017 | –
FAM136A (UniProt Q96C01) | inactive: 0.009 | inactive: -0.018 | inactive: 0.086 | inactive: 0.016 | inactive: 0.054 | inactive: -0.005 | inactive: 0.03 | inactive: -0.011 | inactive: 0.003 | inactive: 0.077 | inactive: -0.022 | inactive: 0.021 | inactive: -0.004 | inactive: 0.067 | inactive: 0 | inactive: -0.021 | inactive: -0.147 | inactive: 0.025 | inactive: 0.018 | inactive: 0.013
ERLIN2 (UniProt O94905) | inactive: -0.003 | inactive: 0.012 | inactive: 0.021 | inactive: 0.05 | inactive: -0.029 | inactive: 0.012 | active: 0.384 | inactive: -0.135 | inactive: 0.008 | inactive: -0.008 | inactive: 0.164 | inactive: 0.016 | inactive: 0.005 | inactive: 0.002 | inactive: 0 | inactive: 0.045 | inactive: -0.164 | inactive: 0 | inactive: -0.06 | inactive: 0.005

Two entries from above, set out differently:
Target	log2 fold change [1]	log2 fold change [2]	log2 fold change [3]	log2 fold change [4]	log2 fold change [5]	log2 fold change [6]	log2 fold change [7]	log2 fold change [8]	log2 fold change [9]	log2 fold change [10]	log2 fold change [11]	log2 fold change [12]	log2 fold change [13]	log2 fold change [14]	log2 fold change [15]	log2 fold change [16]	log2 fold change [17]	log2 fold change [18]	log2 fold change [19]	log2 fold change [20]
F2RL3 (UniProt Q96RI0)	inactive: 0.132	inactive: 0.03	–	–	inactive: 0.055	inactive: 0.14	inactive: -0.089	inactive: 0.25	inactive: 0.052	–	inactive: -0.008	inactive: 0.128	inactive: 0.104	inactive: -0.128	inactive: 0.033	–	–	inactive: -0.014	inactive: -0.013	inactive: 0.087
FAM136A (UniProt Q96C01)	inactive: 0.009	inactive: -0.018	inactive: 0.086	inactive: 0.016	inactive: 0.054	inactive: -0.005	inactive: 0.03	inactive: -0.011	inactive: 0.003	inactive: 0.077	inactive: -0.022	inactive: 0.021	inactive: -0.004	inactive: 0.067	inactive: 0	inactive: -0.021	inactive: -0.147	inactive: 0.025	inactive: 0.018	inactive: 0.013
